Test results: PubChem BioAssay (EPA / NIEHS)
Inconclusive results, whose numbers are uncertain, are shown with a selection of clear calls. Potencies beside an inconclusive call are fits to weak or partial responses and may not hold up. More than one record can exist for a structure, and the calls need not agree. Active and inactive are the calls of the source. Rule for the calls: active = hit-call score of the fitted dose curve at least 0.9, where 1 is the maximum; inconclusive = response in the unintended direction; inactive = score below 0.9.

Sequences of proteins named here, by UniProt entry; tags and fusion partners are left off. A change or cut given only in a name is not applied to a line headed by its entry.
UniProt P37231: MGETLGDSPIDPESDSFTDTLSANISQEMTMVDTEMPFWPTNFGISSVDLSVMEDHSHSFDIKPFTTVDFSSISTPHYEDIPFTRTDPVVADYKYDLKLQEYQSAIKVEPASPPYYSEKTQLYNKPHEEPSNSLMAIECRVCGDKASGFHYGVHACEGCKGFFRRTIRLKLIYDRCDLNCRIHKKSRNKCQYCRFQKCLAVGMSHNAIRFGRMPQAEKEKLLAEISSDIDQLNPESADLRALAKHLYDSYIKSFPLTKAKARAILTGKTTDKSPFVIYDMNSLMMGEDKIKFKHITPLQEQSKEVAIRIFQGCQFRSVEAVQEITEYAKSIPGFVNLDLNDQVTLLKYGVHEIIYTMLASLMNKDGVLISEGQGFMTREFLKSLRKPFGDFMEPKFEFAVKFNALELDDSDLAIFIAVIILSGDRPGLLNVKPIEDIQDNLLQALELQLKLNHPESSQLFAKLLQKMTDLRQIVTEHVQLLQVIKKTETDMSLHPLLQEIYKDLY

biological target: Peroxisome proliferator-activated receptor gamma (Homo sapiens) (UniProt P37231); test: OT_PPARg_PPARgSRC1_0480: Odyssey Thera (OT) 8-hour Protein-Complementation Assay for Peroxisome Proliferator-activated Receptor Gamma / SRC-1 Co-activator (AID 2283387);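 note: nuclear to cytoplasmic split Venus YFP fluorescence ratio reporting PPARg SRC-1 interaction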
Experimental: OT_PPARg_PPARgSRC1_0480 is a cell-based assay that uses HEK293T, a human kidney cell line, with measurements taken at 8 hours after chemical dosing in a 384-well plate.OT_PPARg_PPARgSRC1_0480 is one of one assay component(s) measured or calculated from the OT_PPARg_PPARgSRC1_0480 assay. It is designed to make measurements of protein fragment complementation, a form of binding reporter, as detected with fluorescence intensity signals by Protein-fragment Complementation technology.Data from the assay component OT_PPARg_PPARgSRC1_0480 was analyzed into 1 assay endpoint. This assay endpoint, OT_PPARg_PPARgSRC1_0480, was analyzed in the positive analysis fitting direction relative to DMSO as the negative control and baseline of activity. Using a type of binding reporter, measures of receptor for gain-of-signal activity can be used to understand the binding at the pathway-level as they relate to the gene PPARG. Furthermore, this assay endpoint can be referred to as a primary readout, because the performed assay has only produced 1 assay endpoint. To generalize the intended target to other relatable targets, this assay endpoint is annotated to the nuclear receptor intended target family, where the subfamily is non-steroidal.
The OT PPARg/SRC-1 assay assessed receptor-chemical interactions using a rapidly maturing, intensely fluorescent mutant of YFP known as Venus, rationally dissected into two separate fragments. The fragments were obtained as follows: first, fragments coding for YFP1 and YFP2 (corresponding to amino acid residues 1-158 and 159-239 of the full length YFP, respectively) were generated by oligonucleotide synthesis (Blue Heron Biotechnology), and then PCR mutagenesis was used to generate the mutant fragments IFP1 and IFP2. Fusion constructs were transfected into HEK293T cells with a (Gly4Ser)2 linker between the PPARg/SRC-1 and YFP fragment genes to facilitate complementation when interacting proteins bring fragments into close proximity. The construct is transiently transfected in HEK293T cells 48 hours prior to treatment with test compounds. Cells are seeded into optical quality 384-well poly-D-lysine coated plates in MEM alpha medium (Invitrogen) supplemented with 10 percent FBS (Gemini Bio-Products) 1 percent penicillin and 1 percent streptomycin, and grown in 37C incubator equilibrated to 5 percent CO2. Cells are allowed to adhere for 24 hours prior to treatment with compounds of interest or controls for 8 hours. Cells are fixed in 4 percent formaldehyde and stained with Draq5 (BioStatus) to identify cells and subcellular compartment boundaries prior to signal detection. 8 Images per well were acquired on an Evotec Opera at 2 wavelengths (488 and 635nm), and the ratio of fluorescence in the nucleus relative to fluorescence in the cytoplasm (N/C Ratio) in the 488nm channel was calculated for a minimum of 350 cells per image.

Row | Compound | AC50 | outcome
1 | COc1cc([N+](=O)[O-])ccc1N | inconclusive: 88.6 µM | 
2 | C1CN(SSN2CCOCC2)CCO1 | inconclusive: 50 µM | 
3 | O=C(OCCOCCOCCOC(=O)c1ccccc1)c1ccccc1 | inconclusive: 82.2 µM | 
4 | COc1cccc(-c2ccc(/C=C\CN3CCCCCC3)cc2Cl)c1 | inconclusive: 45.2 µM | 
5 | CCCCCCCCCCCCc1ccc(O)cc1 | inconclusive: 65.1 µM | 
6 | CCCCCCCCOC(=O)c1cc(O)c(O)c(O)c1 |  | inactive
7 | CC(=O)OC(C)(C)C | inconclusive: 50 µM | 
8 | O=C(O)Cc1cc(I)c(Oc2cc(I)c(O)c(I)c2)c(I)c1 | active: 10.6 µM | 
9 | O=C1OC2(c3ccccc31)c1cc(Br)c(O)c(Br)c1Oc1c2cc(Br)c(O)c1Br | active: 74 µM | 
10 | CN1CCN(c2ccccc2/C=C2\SCCN(c3ccc(Cl)c(Cl)c3)C2=O)CC1 | inconclusive: 29.2 µM | 
11 | O=P(OC(CCl)CCl)(OC(CCl)CCl)OC(CCl)CCl | inconclusive: 17.8 µM | inactive
12 | CC[C@H](c1ccc(O)cc1)[C@@H](CC)c1ccc(O)cc1 | inconclusive: 0.5 µM | 
13 | CC(=O)S[C@@H]1CC2=CC(=O)CC[C@]2(C)[C@H]2CC[C@@]3(C)[C@@H](CC[C@@]34CCC(=O)O4)[C@H]12 | inconclusive: 0.5 µM | 
14 | CCN(CC)C(=O)c1cc(S(=O)(=O)Cc2ccccc2)c(N2CCC(c3ccccc3)CC2)cc1N(CC)CCN(C)C | inconclusive: 30.8 µM | 
15 | CC(C)(c1ccc(O)cc1)c1ccc(O)cc1 |  | inactive
16 | CN(C)c1ccc(C(=N)c2ccc(N(C)C)cc2)cc1 | active: 30.6 µM | 
17 | C[C@]12C[C@H](O)[C@H]3[C@@H](CCC4=CC(=O)CC[C@@]43C)[C@@H]1CC[C@@H]2C(=O)CO | inconclusive: 50 µM | 
18 | CC(C)=CCC[C@H](C)CCO | inconclusive: 50 µM | 
19 | N#Cc1ccccc1O |  | inactive
20 | CN(C)c1ccc2nc3ccc(=[N+](C)C)cc-3sc2c1 | active: 31.1 µM | 

Row | Compound | AC50 | outcome
21 | CN(C)CCCN(C)CCCN(C)C | inconclusive: 50 µM | 
22 | NCc1cccc(C2CCN(C(=O)c3ccc(C#Cc4ccccc4F)o3)CC2)c1 | inconclusive: 27.9 µM | 
23 | CCc1nc(N)nc(N)c1-c1ccc(Cl)cc1 | inconclusive: 50 µM | 
24 | COCC(C)OCC(C)OCC(C)O (stereo not given) | inconclusive: 50 µM | 
25 | CCN(CC)c1ccc2c(-c3ccccc3C(=O)O)c3ccc(=[N+](CC)CC)cc-3oc2c1 | active: 12.2 µM | 
26 | CCCCCCCCCCO | inconclusive: 0.35 µM | 
27 | CC(C)(C)c1cc(CCC(=O)OCC(COC(=O)CCc2cc(C(C)(C)C)c(O)c(C(C)(C)C)c2)(COC(=O)CCc2cc(C(C)(C)C)c(O)c(C(C)(C)C)c2)COC(=O)CCc2cc(C(C)(C)C)c(O)c(C(C)(C)C)c2)cc(C(C)(C)C)c1O | inconclusive: 22.2 µM | 
28 | CCCCc1oc2ccccc2c1C(=O)c1cc(I)c(OCCN(CC)CC)c(I)c1 | inconclusive: 37.8 µM | 
29 | c1ccc(C(O[C@@H]2CCCN(CCc3ccc4c(c3)OCO4)C2)c2ccccc2)cc1 | inconclusive: 92.5 µM | 
30 | CCC(=C(c1ccc(O)cc1)c1ccc(OCCN(C)C)cc1)c1ccccc1 | inconclusive: 0.95 µM | 
31 | O=C(N[C@@H](c1ccccc1)[C@@H]1CCCCN1)c1cccc(C(F)(F)F)c1Cl | inconclusive: 50 µM | 
32 | OC12N=C(c3ccccc3)SC1Cc1cc(Cl)ccc12 (stereo not given) | inconclusive: 50 µM | 
33 | CCCCC(CC)COC(=O)/C=C/c1ccc(OC)cc1 (stereo not given) | inconclusive: 50 µM | 
34 | CC(C)(O)c1ccc(CNC(=O)c2cccnc2Oc2ccc3nonc3c2)cc1 | inconclusive: 50 µM | 
35 | CC(C)(C)c1cc(/C=C2\SC(N)=NC2=O)cc(C(C)(C)C)c1O | active: 77.1 µM | 
36 | Oc1cc2ccccc2c2ccccc12 | inconclusive: 50 µM | 
37 | CCCCCCCCn1sc(Cl)c(Cl)c1=O | inconclusive: 25.5 µM | 
38 | C#C[C@]1(O)CC[C@H]2[C@@H]3CCC4=CC(=O)CC[C@@H]4[C@H]3CC[C@@]21CC | inconclusive: 0.5 µM | 
39 | Cc1cc(Cc2cc(C)cc(C(C)(C)C)c2O)c(O)c(C(C)(C)C)c1 | inconclusive: 50 µM | 

Part of the list above in order of molar mass, rising:
Row | Compound | AC50 | outcome
36 | Oc1cc2ccccc2c2ccccc12 | inconclusive: 50 µM | 
21 | CN(C)CCCN(C)CCCN(C)C | inconclusive: 50 µM | 
24 | COCC(C)OCC(C)OCC(C)O (stereo not given) | inconclusive: 50 µM | 
33 | CCCCC(CC)COC(=O)/C=C/c1ccc(OC)cc1 (stereo not given) | inconclusive: 50 µM | 
32 | OC12N=C(c3ccccc3)SC1Cc1cc(Cl)ccc12 (stereo not given) | inconclusive: 50 µM | 
38 | C#C[C@]1(O)CC[C@H]2[C@@H]3CCC4=CC(=O)CC[C@@H]4[C@H]3CC[C@@]21CC | inconclusive: 0.5 µM | 
35 | CC(C)(C)c1cc(/C=C2\SC(N)=NC2=O)cc(C(C)(C)C)c1O | active: 77.1 µM | 
30 | CCC(=C(c1ccc(O)cc1)c1ccc(OCCN(C)C)cc1)c1ccccc1 | inconclusive: 0.95 µM | 
22 | NCc1cccc(C2CCN(C(=O)c3ccc(C#Cc4ccccc4F)o3)CC2)c1 | inconclusive: 27.9 µM | 
34 | CC(C)(O)c1ccc(CNC(=O)c2cccnc2Oc2ccc3nonc3c2)cc1 | inconclusive: 50 µM | 
28 | CCCCc1oc2ccccc2c1C(=O)c1cc(I)c(OCCN(CC)CC)c(I)c1 | inconclusive: 37.8 µM | 
27 | CC(C)(C)c1cc(CCC(=O)OCC(COC(=O)CCc2cc(C(C)(C)C)c(O)c(C(C)(C)C)c2)(COC(=O)CCc2cc(C(C)(C)C)c(O)c(C(C)(C)C)c2)COC(=O)CCc2cc(C(C)(C)C)c(O)c(C(C)(C)C)c2)cc(C(C)(C)C)c1O | inconclusive: 22.2 µM | 
